Assay results published in PubChem BioAssay AID248 (DTP/NCI, 2004).
The list does not hold the whole screen: it gathers tests that were run many times, whatever their T/C, doses with no T/C, and many T/C values between a quarter and a half above the control. Further doses and runs are listed elsewhere. T/C is the treated group as % of the vehicle group. Some doses have a count of surviving animals in place of a T/C: the source files T/C as zero there, which appears to mark a toxic dose or a test without result, not a measured value. Some doses without a T/C left all or most animals alive at the check, yet need not have been tolerated: the source hardly ever lists a survival T/C far under the control, and the zero likely stands for such cases as well. Counts of survivors are from the toxicity check (mostly the fifth day) where no day follows; animals may have died later. Schedules are NCI's codes, taken here to give the interval after Q, in days (D) or hours (H), and the number of doses after X. Some schedules carry Z or #; the key to these is not given. Some entries hold several experiments; their values stand side by side, smallest first. Where survival is the endpoint, this PubChem deposit counts one and a half times the control or more as active, and values a quarter to a half above the control carry no call in these data; other NCI protocols may use other cut-offs. Some T/C values are followed by the survivors on the day toxicity was checked, most often the fifth; where none is given, no animal had died by that day. Brackets with × say how often a value occurs here.

Test system: L1210 leukemia ip in BDF1 mice, survival T/C
Assay: NCI In Vivo Anticancer Drug Screen. Data for tumor model L1210 Leukemia (intraperitoneal) in B6D2F1 (BDF1) mice
Conditions: higher T/C = longer survival
[1] = T/C endpoint: mean survival time, dose: 100.0 mg/kg/injection, schedule: Q01DX001 (ip), vehicle: carboxymethylcellulose (CMC)
[2] = T/C endpoint: mean survival time, dose: 200.0 mg/kg/injection, schedule: Q01DX001 (ip), vehicle: carboxymethylcellulose (CMC)
[3] = T/C endpoint: mean survival time, dose: 400.0 mg/kg/injection, schedule: Q01DX001 (ip), vehicle: carboxymethylcellulose (CMC)
[4] = T/C endpoint: mean survival time, dose: 400.0 mg/kg/injection, schedule: Q01DX001 (ip), vehicle: saline
[5] = T/C endpoint: mean survival time, dose: 400.0 mg/kg/injection, schedule: Q01DX009 (ip), vehicle: saline with Tween-80
[6] = T/C endpoint: mean survival time, dose: 400.0 mg/kg/injection, schedule: Q04DX003 (ip), vehicle: saline
[7] = T/C endpoint: mean survival time, dose: 200.0 mg/kg/injection, schedule: Q01DX009 (ip), vehicle: saline with Tween-80
[8] = T/C endpoint: mean survival time, dose: 50.0 mg/kg/injection, schedule: Q01DX010 (sc), vehicle: steroid suspending solution

## CCc1ccc(/C=C/c2ccc(O)c3ncccc23)[n+](C)c1
T/C endpoint: mean survival time, dose: 8.0 mg/kg/injection, schedule: Q01DX009 (ip), vehicle: carboxymethylcellulose (CMC)
  T/C: 129 % of control
T/C endpoint: mean survival time, dose: 8.0 mg/kg/injection, schedule: Q01DX015 (ip), vehicle: carboxymethylcellulose (CMC)
  T/C: 125 % of control
T/C endpoint: mean survival time, dose: 16.0 mg/kg/injection, schedule: Q01DX009 (ip), vehicle: carboxymethylcellulose (CMC)
  T/C: 129 % of control
T/C endpoint: mean survival time, dose: 16.0 mg/kg/injection, schedule: Q01DX015 (ip), vehicle: carboxymethylcellulose (CMC)
  T/C: 134 [5 of 6 alive] and 144 % of control
T/C endpoint: mean survival time, dose: 32.0 mg/kg/injection, schedule: Q01DX009 (ip), vehicle: carboxymethylcellulose (CMC)
  survivor count: 2 of 6
T/C endpoint: mean survival time, dose: 35.0 mg/kg/injection, schedule: Q01DX009 (ip), vehicle: saline with Tween-80
  survivor count: 0 of 6
T/C endpoint: mean survival time, dose: 35.0 mg/kg/injection, schedule: Q04DX003 (ip), vehicle: saline
  survivor count: 3 of 6
T/C endpoint: mean survival time, dose: 50.0 mg/kg/injection, schedule: Q01DX001 (ip), vehicle: saline
  survivor count: 0 of 6
T/C endpoint: mean survival time, dose: 55.0 mg/kg/injection, schedule: Q01DX009 (ip), vehicle: saline with Tween-80
  survivor count: 0 of 6
T/C endpoint: mean survival time, dose: 55.0 mg/kg/injection, schedule: Q04DX003 (ip), vehicle: saline
  survivor count: 1 of 6
T/C endpoint: mean survival time, dose: 64.0 mg/kg/injection, schedule: Q01DX001 (ip), vehicle: other
  survivor count: 1 of 10
T/C endpoint: mean survival time, dose: 64.0 mg/kg/injection, schedule: Q01DX009 (ip), vehicle: carboxymethylcellulose (CMC)
  survivor count: 0 of 6
T/C endpoint: mean survival time, dose: 64.0 mg/kg/injection, schedule: Q01DX015 (ip), vehicle: carboxymethylcellulose (CMC)
  survivor count: 0 of 6
T/C endpoint: mean survival time, dose: 64.0 mg/kg/injection, schedule: Q04DX003 (ip), vehicle: other
  survivor count: 0 of 10
T/C endpoint: mean survival time, dose: 64.0 mg/kg/injection, schedule: Q08DX002 (ip), vehicle: other
  survivor count: 1 of 10
T/C endpoint: mean survival time, dose: 80.0 mg/kg/injection, schedule: Q01DX001 (ip), vehicle: carboxymethylcellulose (CMC)
  survivor count: 1 of 6
T/C endpoint: mean survival time, dose: 80.0 mg/kg/injection, schedule: Q01DX009 (ip), vehicle: saline with Tween-80
  survivor count: 0 of 6
T/C endpoint: mean survival time, dose: 80.0 mg/kg/injection, schedule: Q04DX003 (ip), vehicle: saline
  survivor count: 1 of 6
[1]
  survivor count: 0 of 6
T/C endpoint: mean survival time, dose: 100.0 mg/kg/injection, schedule: Q01DX001 (ip), vehicle: saline
  survivor count: 0 of 6
T/C endpoint: mean survival time, dose: 128.0 mg/kg/injection, schedule: Q01DX001 (ip), vehicle: other
  survivor count: 0 of 10
T/C endpoint: mean survival time, dose: 128.0 mg/kg/injection, schedule: Q04DX003 (ip), vehicle: other
  survivor count: 0 of 10
T/C endpoint: mean survival time, dose: 128.0 mg/kg/injection, schedule: Q08DX002 (ip), vehicle: other
  survivor count: 0 of 10
[2]
  survivor count: 0 of 6
T/C endpoint: mean survival time, dose: 200.0 mg/kg/injection, schedule: Q01DX001 (ip), vehicle: saline
  survivor count: 1 of 6
[3]
  survivor count: 0 of 6
[4]
  survivor count: 0 of 6

## NC1=CC(=O)C(=O)c2cccnc21
T/C endpoint: mean survival time, dose: 150.0 mg/kg/injection, schedule: Q01DX001 (ip), vehicle: other
  survivor count: 2 of 7
T/C endpoint: mean survival time, dose: 300.0 mg/kg/injection, schedule: Q01DX001 (ip), vehicle: other
  survivor count: 0 of 7

## CCc1cc(Cl)ccc1OCC(=O)O
[5]
  survivor count: 0 of 6

## COC(=O)C1=C(C(=O)OC)C2OC1C(COC(C)=O)=C2COC(C)=O
T/C endpoint: mean survival time, dose: 200.0 mg/kg/injection, schedule: Q04DX003 (ip), vehicle: saline
  survivor count: 3 of 6
[6]
  survivor count: 0 of 6

## N#CCCC(=O)c1ccccn1
T/C endpoint: mean survival time, dose: 100.0 mg/kg/injection, schedule: Q01DX009 (ip), vehicle: Klucel (hydroxypropylcellulose) (HPC)
  survivor count: 6 of 6

## OC(CC1(O)C(F)(F)C(F)(F)C1(F)F)c1ccccc1 (stereo not given)
[7]
  survivor count: 6 of 6

## C[Si](C)(CCN1CC1)N1CC1
[1]
  survivor count: 0 of 4
[2]
  survivor count: 0 of 4
[3]
  survivor count: 0 of 4

## N=C(N)SCC(O)c1ccccc1 (stereo not given)
T/C endpoint: mean survival time, dose: 400.0 mg/kg/injection, schedule: Q01DX009 (ip), vehicle: Klucel (hydroxypropylcellulose) (HPC)
  survivor count: 0 of 6

## O=C(COc1cccc(Cl)c1Cl)Nc1ccc[n+](Cc2ccc(S(=O)(=O)F)cc2)c1
T/C endpoint: mean survival time, dose: 400.0 mg/kg/injection, schedule: Q04DX003 (ip), vehicle: Klucel (hydroxypropylcellulose) (HPC)
  survivor count: 1 of 6

## CN(C)CCC(C=NCC(CCN(C)C)(CCN(C)C)c1cccc2ccccc12)(CCN(C)C)c1cccc2ccccc12
T/C endpoint: mean survival time, dose: 50.0 mg/kg/injection, schedule: Q01DX009 (ip), vehicle: saline with Tween-80
  survivor count: 5 of 6
T/C endpoint: mean survival time, dose: 50.0 mg/kg/injection, schedule: Q04DX003 (ip), vehicle: saline with Tween-80
  survivor count: 0 of 6
T/C endpoint: mean survival time, dose: 100.0 mg/kg/injection, schedule: Q01DX009 (ip), vehicle: saline with Tween-80
  survivor count: 0 of 6
[7]
  survivor count: 0 of 6
[5]
  survivor count: 0 of 6

## C[N+](C)(C)Cc1ccccc1C[N+](C)(C)C
[4]
  survivor count: 0 of 4

## O=C1C(N2CC2)=C(N2CCCC(O)C2)C(=O)C(N2CC2)=C1N1CCCC(O)C1 (stereo not given)
T/C endpoint: mean survival time, dose: 0.75 mg/kg/injection, schedule: Q01DX009 (ip), vehicle: saline
  T/C: 128 % of control
T/C endpoint: mean survival time, dose: 1.0 mg/kg/injection, schedule: Q04DX003 (ip), vehicle: saline
  T/C: 133 % of control
T/C endpoint: mean survival time, dose: 1.5 mg/kg/injection, schedule: Q01DX009 (ip), vehicle: saline
  T/C: 129 % of control [5 of 6 alive]
T/C endpoint: mean survival time, dose: 2.6 mg/kg/injection, schedule: Q04DX003 (ip), vehicle: saline
  T/C: 132 % of control
T/C endpoint: mean survival time, dose: 3.0 mg/kg/injection, schedule: Q01DX009 (ip), vehicle: saline
  T/C: 144 % of control
T/C endpoint: mean survival time, dose: 8.0 mg/kg/injection, schedule: Q04DX003 (ip), vehicle: saline
  T/C: 128 % of control

## COc1cc2ccc3c(c2cc1OC)CNCC3
[6]
  survivor count: 0 of 6

## C[C@]12C=CC(=O)C=C1CC[C@@H]1[C@@H]2C(=O)C[C@@]2(C)[C@H]1CC[C@]2(O)C(=O)CO
T/C endpoint: mean survival time, dose: 12.5 mg/kg/injection, schedule: Q01DX010 (sc), vehicle: steroid suspending solution
  T/C: 94, 99, 100, 101 % of control
T/C endpoint: mean survival time, dose: 25.0 mg/kg/injection, schedule: Q01DX010 (sc), vehicle: steroid suspending solution
  T/C: 92, 94, 100, 104 % of control
[8]
  T/C: 99, 100 [5 of 6 alive], 104 % of control
  survivor count: 5 of 6
T/C endpoint: mean survival time, dose: 100.0 mg/kg/injection, schedule: Q01DX010 (sc), vehicle: steroid suspending solution
  T/C: 87, 90 [5 of 6 alive], 96, 105 % of control
T/C endpoint: mean survival time, dose: 100.0 mg/kg/injection, schedule: Q01DX Z (sc), vehicle: steroid suspending solution
  survivor count: 4 of 6
T/C endpoint: mean survival time, dose: 200.0 mg/kg/injection, schedule: Q01DX010 (sc), vehicle: steroid suspending solution
  T/C: 92, 92 [5 of 6 alive], 94, 98 % of control
T/C endpoint: mean survival time, dose: 200.0 mg/kg/injection, schedule: Q01DX Z (sc), vehicle: steroid suspending solution
  survivor count: 2 of 6
T/C endpoint: mean survival time, dose: 400.0 mg/kg/injection, schedule: Q01DX Z (sc), vehicle: steroid suspending solution
  survivor count: 4 of 6 and 6 of 6
T/C endpoint: median survival time, dose: 25.0 mg/kg/injection, schedule: Q01DX009 (ip), vehicle: saline
  T/C: 100 (3×) and 105 % of control [5 of 6 alive]
T/C endpoint: median survival time, dose: 50.0 mg/kg/injection, schedule: Q01DX009 (ip), vehicle: saline
  T/C: 100 (2×), 106, 111 % of control
T/C endpoint: median survival time, dose: 100.0 mg/kg/injection, schedule: Q01DX009 (ip), vehicle: saline
  T/C: 100 [5 of 6 alive], 105 (2×), 106 % of control
T/C endpoint: median survival time, dose: 200.0 mg/kg/injection, schedule: Q01DX009 (ip), vehicle: saline
  T/C: 87 [5 of 6 alive], 110, 111, 112 % of control
T/C endpoint: median survival time, dose: 300.0 mg/kg/injection, schedule: Q01DX009 (ip), vehicle: water
  survivor count: 8 of 8
T/C endpoint: median survival time, dose: 500.0 mg/kg/injection, schedule: Q01DX009 (ip), vehicle: water
  survivor count: 7 of 8
T/C endpoint: median survival time, dose: 800.0 mg/kg/injection, schedule: Q01DX009 (ip), vehicle: water
  survivor count: 3 of 8
T/C endpoint: median survival time, dose: 833.0 mg/kg/injection, schedule: Q01DX009 (ip), vehicle: water
  survivor count: 6 of 8
T/C endpoint: median survival time, dose: 1388.0 mg/kg/injection, schedule: Q01DX009 (ip), vehicle: water
  survivor count: 7 of 8
